Results from PubChem BioAssay AID493014 (National Center for Advancing Translational Sciences (NCATS), 2011).
Hit rate of the full screen: of about 340,000 compounds, about 170 (0.05%) were called active. The inconclusive results got no clear call from the source; some entries with a clear call stand among them for comparison. Calls come from the whole dose curve; as a rule, active = well fitted inhibition curve with a large enough effect in the signal ratio, with a control signal flat (not every such curve was filed as active); inconclusive = small, poorly fitted or top-dose-only effect, or effect the other way, or a change in a side signal; inactive = flat fitted curve, though single readings scatter; the % refers to the signal ratio. A potency beside an inconclusive call is a rough fit, not a confirmed value.

Experiment: qHTS Assay to Find Inhibitors of Chronic Active B-Cell Receptor Signaling;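 for activity change, negative = inhibition: plate controls were basal doxycycline-induced cells for no effect and cells given 10 µM MG132 for full effect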
Settings: ABC-DLBCL IkBa-CBG/CBR reporter, luminescence ratio (green luciferase fused to IkBa over red control in TMD8 lymphoma cells), 4 h; activity change, negative = inhibition: at 46.1 µM (top of the series) unless noted
Procedure, shortened: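 Concentration-response series (up to 46 uM) were applied to TMD8 dual-reporter cells for 4 h at 37C with doxycycline. Green/red ratio, after filter-overlap correction, defined %Activity; red signal alone was normalised to basal cells and zero luminescence.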
Potency is the fitted concentration of half-maximal effect.

| SMILES | activity change, negative = inhibition | Potency |
| --- | --- | --- |
| COc1cccc(N(CC(=O)O)S(=O)(=O)c2ccccc2)c1 | inconclusive: 8.88% | – |
| CCOc1ccc(NC(=S)Nc2ccc(OC)cc2)cc1 | inconclusive: 1.5% | – |
| Cc1nnc(C)c2c(C)n(-c3ccccc3N)c(C)c12 | inactive: -1.36% | – |
| COCCCn1cnc2c(c1=O)c1nc3ccccc3nc1n2CCc1ccccc1 | inactive: -3.77% | – |
| COc1cc(/C=N\Nc2nc3ccccc3o2)cc(OC)c1OC | – | inconclusive: 0.461 µM [rising, full curve, poor fit] |
| CCOC(=O)c1c(-c2ccccc2)csc1NC(=O)CSc1nnnn1C | inconclusive: 5.09% | – |
| C/C(=N\NC(=O)c1cc(-c2cccnc2)nc2ccccc12)c1ccc(O)cc1O | inactive: -11% | – |
| COc1ccc(N2CC(C(=O)Nc3nnc(SCc4cccnc4)s3)CC2=O)cc1 (centres undefined) | inconclusive: 0.584% | – |
| CC12CC(NC(=O)N1Cc1ccccc1)c1ccccc1O2 (centres undefined) | inactive: -6.39% | – |
| CCOC(=O)C1=C(CSc2nc(CC)c(C)cc2C#N)OC(N)=C(C#N)C1c1ccccc1 (centres undefined) | inconclusive: -7.1% | – |
| CCCCN1C(=O)C(=O)N(c2ccccc2)C1=S | – | inconclusive: 23.1 µM [falling, partial curve] |
| COc1ccc(-c2nc(CN3CCCC(C(=O)NC4CCCC4)C3)c(C)o2)cc1 (centres undefined) | inactive: 29.7% | – |
| CCc1ccc(Nc2nc(-c3cc4cccc(OC)c4oc3=O)c(CC)s2)cc1 | inactive: -29.8% | – |
| COc1cc(C(=O)NCCCNc2nc3cc(C)cc(C)c3cc2C#N)cc(OC)c1OC | inconclusive: 0.582% | – |
| O=C(NC(O)C(=O)c1ccccc1)c1ccc(F)cc1 (centres undefined) | inconclusive: -0.457% | – |
| Cc1c(/C=C/C(=O)c2ccccc2)cnn1C | – | inconclusive: 35.5 µM [falling, single point] |
| Cc1nc([N+](=O)[O-])c(Br)n1CC(=O)c1ccc(Br)cc1 | – | inconclusive: 20.6 µM [falling, partial curve] |
| O=S1(=O)C=CC(c2ccccc2)C1 (centres undefined) | inactive: 2.14% | – |
| CCC(=O)N1CCc2cc(Br)cc(S(=O)(=O)NCCc3ccc(C)cc3)c21 | inconclusive: 14.1% | – |
| CC(C)C[C@H](NC(=O)c1[nH]cnc1C(=O)N[C@@H](C)C(=O)OCc1ccccc1)C(=O)OCc1ccccc1 | inactive: 1.03% | – |
| CCCCCc1cc(=O)oc2c(C(CCN3CCCC3)c3ccc(N(C)C)cc3)c(OC)cc(OC)c12 (centres undefined) | inactive: -11% | – |
| NS(=O)(=O)c1cccc(NC(=O)CSc2ncc(C(F)(F)F)cc2Cl)c1 | inconclusive: -1.74% | – |
| Cc1ccc(C)c(Cn2nnc3c(=O)[nH]c(C4CCN(C(=O)c5cccs5)CC4)nc32)c1 | inconclusive: 0.54% | – |
| O=C(/C=C/c1ccc(Cl)cc1)c1ccc([N+](=O)[O-])o1 | inactive: -13.8% | – |

Four entries from above in another layout.
SMILES,"activity change, negative = inhibition",Potency
COc1cc(C(=O)NCCCNc2nc3cc(C)cc(C)c3cc2C#N)cc(OC)c1OC,inconclusive: 0.582%,–
O=C(NC(O)C(=O)c1ccccc1)c1ccc(F)cc1 (centres undefined),inconclusive: -0.457%,–
Cc1c(/C=C/C(=O)c2ccccc2)cnn1C,–,"inconclusive: 35.5 µM [falling, single point]"
Cc1nc([N+](=O)[O-])c(Br)n1CC(=O)c1ccc(Br)cc1,–,"inconclusive: 20.6 µM [falling, partial curve]"
